Measurements reported in PubChem BioAssay AID504764 (Drosophila RNAi Screening Center, 2011)
Test: 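Knock-downs that raise or lower a Notch target reporter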 (primary screen). Cells: Drosophila Kc167 cells. Knock-down reagent: long dsRNA against Drosophila genes. Duration: about 5 days (4 days dsRNA, then 24 h after transfection). Challenge: transfection of constitutively active membrane-tethered Notch lacking the extracellular domain, read 24 h later. Read-out: 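Light from a Notch-responsive E(spl)m3 luciferase reporter under active Notch, with control-promoter and no-Notch reporter wells to normalise; raw counts from paired wells a and b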. Direction: induced reporter light, run 1, well a and induced reporter light, run 1, well b: higher = more light from the Notch target reporter with active Notch; control promoter light, run 1, well a and control promoter light, run 1, well b: higher = more light from the viral control promoter (cell number, transfection, viability); uninduced reporter light, run 1, well a: higher = more light from the Notch target reporter without active Notch. Rule for the call: 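Wells with low control signal or poorly matching duplicates excluded; duplicates averaged; per source plate, z beyond ±2 for induced/control log2 ratio or beyond ±1.8 for induced/uninduced marks a hit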. Meaning of the calls: active = modifier hit (raised or lowered Notch signal); inactive = not a hit.
The deposit covers about 22,000 reagents; below is an unselected part of those with a known target gene and a result. In the full data, 403 (1.9%) got an active call. 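Unnormalised raw counts per well; ratio z-scores behind the hit calls and whether each hit raises or lowers signal are not deposited.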 A plus sign joins genes that one reagent is predicted to hit. The record does not give: the amount of reagent.

predicted target	DRSC id	induced reporter light, run 1, well a	induced reporter light, run 1, well b	control promoter light, run 1, well a	control promoter light, run 1, well b	uninduced reporter light, run 1, well a	outcome
sunz	DRSC12559	57200	56210	47975	42080	3620	inactive
Shawl	DRSC02209	1.20e5	1.62e5	58090	99460	18565	inactive
Shawl	DRSC02748	1.34e5	1.52e5	78695	1.11e5	18560	inactive
stv	DRSC09796	59600	80765	40570	64710	8515	inactive
stv	DRSC10111	71030	53475	77035	70715	4795	inactive
Snmp2	DRSC10228	2.83e5	2.57e5	4.13e5	3.43e5	17740	inactive
Snmp2	DRSC10843	2.79e5	2.12e5	3.30e5	2.52e5	12140	inactive
CG13039	DRSC09920	2.70e5	1.70e5	2.41e5	2.39e5	5710	inactive
CG14826	DRSC10197	1.99e5	1.53e5	2.29e5	2.27e5	7995	inactive
CG10918	DRSC20472	89380	83460	82435	1.14e5	10032	inactive
CG34273	DRSC13041	1.53e5	1.17e5	1.97e5	1.61e5	10370	inactive
CG13972	DRSC14715	1.80e5	1.21e5	2.35e5	2.49e5	15340	inactive
CG14286	DRSC14767	1.80e5	1.78e5	2.11e5	1.58e5	12525	inactive
Arr1	DRSC01867	1.49e5	1.72e5	1.71e5	1.70e5	13935	inactive
SmydA-2	DRSC10296	91645	63970	64050	62835	5270	inactive
Mau2	DRSC15550	1.18e5	98095	83615	73250	7905	inactive
CG6839	DRSC10723	97805	1.23e5	60500	81825	8070	inactive
HIPP1	DRSC11748	1.32e5	1.12e5	99615	1.08e5	10255	inactive
Pdss2	DRSC11625	1.11e5	1.42e5	71530	71470	8170	inactive
CG3511	DRSC04382	2.04e5	1.39e5	1.14e5	1.21e5	13388	inactive
CG4822	DRSC00669	1.58e5	2.20e5	2.19e5	2.23e5	17885	inactive
CG12546 + CG14452	DRSC11709	1.05e5	1.07e5	95635	81575	7440	inactive
Lcp65Aa	DRSC11209	2.16e5	1.71e5	2.05e5	1.55e5	9032	inactive
Moca-cyp	DRSC15364	1.95e5	2.22e5	2.43e5	2.46e5	12760	inactive
CG8517	DRSC07205	97440	95160	1.18e5	1.43e5	8365	inactive
CG13272	DRSC02249	1.36e5	1.32e5	1.38e5	1.55e5	12935	inactive
CG3191	DRSC18530	1.56e5	2.17e5	2.11e5	2.34e5	13100	inactive
CG14764	DRSC05072	73610	87795	98755	1.05e5	5730	inactive
CG14764	DRSC06498	1.25e5	1.51e5	93400	95415	10310	inactive
CG14764	DRSC06844	2.45e5	2.24e5	2.43e5	2.18e5	18665	inactive
CG10550	DRSC14251	1.96e5	2.00e5	2.84e5	3.01e5	14045	inactive
azot	DRSC06051	2.13e5	2.20e5	2.71e5	2.70e5	19820	inactive
CG34310	DRSC00943	1.22e5	1.47e5	2.53e5	2.42e5	11200	inactive
CG9500	DRSC03237	1.59e5	1.35e5	1.60e5	1.78e5	8495	inactive
CG7366	DRSC10825	1.84e5	1.82e5	3.08e5	2.72e5	17890	inactive
CG14280	DRSC14761	1.64e5	1.54e5	1.65e5	1.80e5	10275	inactive
CG33191 + Pif1B	DRSC12706	1.82e5	1.52e5	1.59e5	1.86e5	12025	inactive
Tti1	DRSC15163	72110	73605	87350	68260	4242	inactive
Rrp5	DRSC15862	1.45e5	1.41e5	1.75e5	1.69e5	10540	inactive
CG33493	DRSC10642	1.47e5	1.45e5	1.74e5	1.83e5	7942	inactive
CG7133	DRSC11798	1.26e5	1.09e5	65745	87950	8780	inactive
skl	DRSC10050	1.90e5	1.68e5	2.68e5	2.41e5	10650	inactive
CG31445	DRSC14443	2.05e5	2.05e5	2.65e5	2.14e5	14665	inactive
CG14492	DRSC06463	85420	1.03e5	1.34e5	1.40e5	8230	inactive
CG32582 (retired record)	DRSC19114	90540	1.01e5	94995	95270	8955	inactive
CG32021 (retired record)	DRSC17206	1.20e5	1.22e5	2.15e5	2.05e5	8305	inactive
CG33679	DRSC01436	1.26e5	1.07e5	1.20e5	85080	12275	inactive
CG17707	DRSC20650	1.09e5	91720	1.03e5	1.33e5	9965	inactive
RpL10	DRSC11947	21020	24250	24295	19942	1575	inactive
CG5276	DRSC15759	1.17e5	1.07e5	90545	86385	8330	inactive

Records listed so far whose target name begins with R or r:
predicted target	DRSC id	induced reporter light, run 1, well a	induced reporter light, run 1, well b	control promoter light, run 1, well a	control promoter light, run 1, well b	uninduced reporter light, run 1, well a	outcome
Rrp5	DRSC15862	1.45e5	1.41e5	1.75e5	1.69e5	10540	inactive
RpL10	DRSC11947	21020	24250	24295	19942	1575	inactive
